# Test results taken from PubChem BioAssay AID540256 (National Center for Advancing Translational Sciences (NCATS), 2011).
# Out of some 300,000 compounds screened, about 3,700 (1.2%) were called active. The inconclusive results got no clear call from the source; some entries with a clear call stand among them for comparison. Calls come from the whole dose curve; tested in HEK293 cells. Where the call is inconclusive, the potency comes from a doubtful curve fit.
# Assay: qHTS for Inhibitors of binding or entry into cells for Lassa Virus; note: nearly all actives have a fitted effect of over 50% in size
# Conditions: Lassa virus pseudotype entry inhibition, cell reporter; activity change, negative = inhibition: at 37.9 µM (top of the series) unless noted
# % is set by controls: 0 for no effect and ±100 for the full control effect; potency is the fitted concentration of half-maximal effect.
Compound,"activity change, negative = inhibition",Potency
O=C(Nc1ccc(Br)cc1)C1CCCC1,inactive: 5.32%,
CC(=O)Nc1nc(C)cs1,inactive: 8.06% [at 46.1 µM],
CC[N+]1=CN(c2ccccc2)C(C)=CC1(C)C,inactive: -1.25%,
CCc1ccccc1Nc1nc(N)nc(COC(=O)C2CCN(C(=O)c3ccc(F)cc3)CC2)n1,,"inconclusive: 31.6 µM [inhibitor, single point]"
CCCSc1nnc2c(n1)OC(c1ccc(Br)s1)Nc1ccccc1-2 (stereo not given),inactive: 23.3% [at 46.1 µM],
COC(=O)c1ccc(N2CCC(c3cc(-c4ccc(OC)cc4)n[nH]3)CC2)c([N+](=O)[O-])c1,,"inconclusive: 29.1 µM [inhibitor, single point]"
O=C(Cc1cccs1)NCc1ccc(Cl)cc1Cl,inactive: -4.21% [at 46.1 µM],
Cc1ccc(S(=O)(=O)Nc2cc(C)cn(Cc3ccccc3)c2=O)cc1,,"inconclusive: 20 µM [inhibitor, single point]"
CCc1ccc2[nH]c(=O)c(CN(Cc3ccccc3)Cc3nnnn3Cc3ccco3)cc2c1,,"inconclusive: 35.5 µM [inhibitor, single point]"
Cc1ccc(C(=O)CSc2nnc(N)s2)c(C)c1,,"inconclusive: 1.26 µM [activator, single point]"
CC1C(=O)N(c2ccc(S(=O)(=O)N(C)C)cc2)C1(/C=C/c1ccccc1)C(=O)NC1CCCC1 (stereo not given),,"inconclusive: 3.98 µM [inhibitor, full curve]"
c1ccc2c(c1)OC(CCCN1CCCCC1)c1ccccc1S2 (stereo not given),inactive: -16.8%,
CCn1c(N2CCN(C(=S)NCCc3ccccc3)CC2)nc2ccccc21,inactive: -12.1%,
Cc1ccc(NC(=O)CSc2nnc(CCNC(=O)OC(C)(C)C)o2)c(C)c1,inactive: -3.29%,
CCOC(=O)N1CCN(C(=O)c2c(C)nn(-c3cccc(C)c3)c2-n2cccc2)CC1,inactive: -7.05% [at 46.1 µM],
CC(C)CN(C(=O)COC(=O)Cc1cccc2ccccc12)c1c(N)n(Cc2ccccc2)c(=O)[nH]c1=O,inactive: -16%,
COc1cc(-c2nc3cnccn3c2Nc2ccc(C)cc2)ccc1O,,"inconclusive: 16.4 µM [inhibitor, single point]"
O=C(O)c1ccccc1P(=O)(c1ccccc1)c1ccccc1,,"inconclusive: 6.31 µM [inhibitor, partial curve, poor fit]"

Compound,"activity change, negative = inhibition",Potency
Cc1ccc(S(=O)(=O)c2[nH]c(-c3ccccc3)nc2SCC(N)=O)cc1,inactive: 6.97% [at 46.1 µM],
CC(C)(C)NC(=O)NC(=O)COC(=O)c1cccc(S(=O)(=O)N2CCCCC2)c1,inactive: 8.1%,
COc1cccc(NC(=O)C(Sc2nnc(Nc3ccccc3C)s2)c2ccccc2)c1 (stereo not given),,"inconclusive: 16.4 µM [inhibitor, partial curve]"
COc1ccc(NC(=O)CCn2c(=O)c3cccn3c3cccnc32)cc1Cl,inactive: 13.8% [at 46.1 µM],
CCN(CC)C(=O)c1sc2c(c1C)c(=O)n(-c1ccc(Cl)c(Cl)c1)c(=O)n2Cc1cc(=O)n2ccccc2n1,,"inconclusive: 3.16 µM [inhibitor, partial curve, poor fit]"
CCOC(=O)c1ccc2[nH]c3c(c2c1)CCCCC3=O,,"inconclusive: 8.2 µM [inhibitor, partial curve, poor fit]"
FC(F)(F)c1cccc(-c2noc(CN3CCOCC3)n2)c1,inactive: 3.21%,
CC(C)C(=O)N1c2nc(-c3ccco3)nn2C2(CCCCC2)[C@@H]2CCCC[C@@H]21,,"inconclusive: 5.62 µM [activator, full curve, poor fit]"
COc1ccc(OC)c(NC(=O)CSc2ncnc3c2cnn3-c2ccccc2Cl)c1,,"inconclusive: 10.3 µM [inhibitor, partial curve, poor fit]"
CCc1nc(SCC(=O)Nc2cc(C)on2)n[nH]1,inactive: -0.203%,
CC(=O)Nc1ccc(S(=O)(=O)N2CCC(c3nnc(-c4ccc(C)cc4)o3)CC2)cc1,inactive: -1.24% [at 46.1 µM],
CCOC(=O)C1=C(C)N(Cc2ccc(C(=O)O)cc2)C(=O)NC1c1ccc([N+](=O)[O-])cc1 (stereo not given),inactive: 0.561%,
CCOC(=O)c1c(NC(=O)C(C)OC(=O)c2ccc(NC(=O)CC#N)cc2)sc2c1CCCC2 (stereo not given),,"inconclusive: 10 µM [inhibitor, partial curve, poor fit]"
COc1ccc(C2CC(c3ccc(OC)cc3O)=NN2C(=O)c2ccccc2)cc1 (stereo not given),,"inconclusive: 1 µM [inhibitor, full curve, poor fit]"
CCOC(=O)C1=C(COC(=O)Cc2ccccc2F)NC(=O)NC1C (stereo not given),,"inconclusive: 5.62 µM [activator, partial curve, poor fit]"
COCCN(C(=S)Nc1c(C)cccc1C)C(C)c1cccnc1 (stereo not given),,"inconclusive: 1 µM [inhibitor, full curve, poor fit]"
COc1ccc(CNS(=O)(=O)c2cc3c4c(c2)CCN4C(=O)CC3)cc1,,"inconclusive: 35.5 µM [activator, single point]"

# 10 entries from above, reformatted:
Compound	activity change, negative = inhibition	Potency
CCc1ccccc1Nc1nc(N)nc(COC(=O)C2CCN(C(=O)c3ccc(F)cc3)CC2)n1		inconclusive: 31.6 µM [inhibitor, single point]
CCCSc1nnc2c(n1)OC(c1ccc(Br)s1)Nc1ccccc1-2 (stereo not given)	inactive: 23.3% [at 46.1 µM]	
COC(=O)c1ccc(N2CCC(c3cc(-c4ccc(OC)cc4)n[nH]3)CC2)c([N+](=O)[O-])c1		inconclusive: 29.1 µM [inhibitor, single point]
O=C(Cc1cccs1)NCc1ccc(Cl)cc1Cl	inactive: -4.21% [at 46.1 µM]	
Cc1ccc(S(=O)(=O)Nc2cc(C)cn(Cc3ccccc3)c2=O)cc1		inconclusive: 20 µM [inhibitor, single point]
CCc1ccc2[nH]c(=O)c(CN(Cc3ccccc3)Cc3nnnn3Cc3ccco3)cc2c1		inconclusive: 35.5 µM [inhibitor, single point]
Cc1ccc(C(=O)CSc2nnc(N)s2)c(C)c1		inconclusive: 1.26 µM [activator, single point]
CC1C(=O)N(c2ccc(S(=O)(=O)N(C)C)cc2)C1(/C=C/c1ccccc1)C(=O)NC1CCCC1 (stereo not given)		inconclusive: 3.98 µM [inhibitor, full curve]
c1ccc2c(c1)OC(CCCN1CCCCC1)c1ccccc1S2 (stereo not given)	inactive: -16.8%	
CCn1c(N2CCN(C(=S)NCCc3ccccc3)CC2)nc2ccccc21	inactive: -12.1%	
